The other results are listed elsewhere or left out.
These sequences were tested against T1, OsSMF1 (Oryza sativa, UniProt Q6ZLB0 1-436) (assay: protein-binding microarray (RPBM); PBS, 2% BSA, 51.3 ng/ul salmon testes DNA, 50 uM zinc acetate, 200 nM TF, 25 C, 1 h; high values mean tight binding). Conditions: protein: recombinant; tags: N-terminal polyhistidine and DsRed monomer fusion (pET32a); chain copies: 2; label: CyDye5-dUTP incorporated in the synthesized complementary strand; 3' TTTTT single-stranded linker to array surface; dsDNA, one strand shown.
T1 sequence: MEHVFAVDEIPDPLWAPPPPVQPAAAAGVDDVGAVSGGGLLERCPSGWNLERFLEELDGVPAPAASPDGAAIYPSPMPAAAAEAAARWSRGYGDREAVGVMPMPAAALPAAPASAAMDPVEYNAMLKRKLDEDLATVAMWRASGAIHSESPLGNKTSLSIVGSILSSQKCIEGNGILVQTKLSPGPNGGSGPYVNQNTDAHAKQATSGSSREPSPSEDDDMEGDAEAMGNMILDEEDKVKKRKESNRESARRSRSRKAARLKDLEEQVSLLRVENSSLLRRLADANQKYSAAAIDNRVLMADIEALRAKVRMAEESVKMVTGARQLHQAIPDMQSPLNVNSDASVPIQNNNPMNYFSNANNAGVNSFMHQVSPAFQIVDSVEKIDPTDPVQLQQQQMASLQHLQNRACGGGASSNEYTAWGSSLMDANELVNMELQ
How it was run: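 For the binding signal, per-feature fluorescence intensity was read in arbitrary units on an Axon 4000B scanner. Before scanning, a 2% BSA-blocked custom Agilent array made double-stranded with Cy5-dUTP was washed after 1 h at 25 °C with 200 nM protein and 50 µM zinc acetate. The proteins were Ni–NTA-purified transcription factors with N-terminal polyhistidine and DsRed fusions, expressed in E. coli BL21-CodonPlus.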
For “ACGTAATTATAATTTATTTTGTTATGAGTTGGTTTATCACCGGAGTCACCTAGTGCAG”, the binding signal was 30400 fluorescence intensity (a.u.). For “GGTGTTTTAGCTTTGAGTCAACTTGTTTTAAGTTTGATCACGGAGTCACCTAGTGCAG”, the binding signal was 3670 fluorescence intensity (a.u.). “TCAGCTTATGTCGCGTACGTCGTACGTGTCCAGTTCGGAGCGGAGTCACCTAGTGCAG” was tested, and the binding signal was 7800 fluorescence intensity (a.u.). In the case of “TCTCAACTACTCATAAATGACAGACATTTCTGACAAGCTACGGAGTCACCTAGTGCAG”, the binding signal is reported as 38200 fluorescence intensity (a.u.). With “GAGTCTGACAACACGATCCCAATGTTTGCACATGGATTTGCGGAGTCACCTAGTGCAG” the binding signal was 3290 fluorescence intensity (a.u.). With “CGGTCGCCTCCTTTGCCCAATCACTCCTCATTCGAACACGCGGAGTCACCTAGTGCAG” the binding signal was 3280 fluorescence intensity (a.u.). “TCAAGGACTGCAACTACTAAATGGACAACACTAGGTTTGACGGAGTCACCTAGTGCAG” was tested, and the binding signal was 3420 fluorescence intensity (a.u.). With “TGATCCTCAGCTTCCACGTGGACGTACAAGATCACCTCCCCGGAGTCACCTAGTGCAG” the binding signal was 17700 fluorescence intensity (a.u.). In the case of “TGCGTGGGAAATGACTAGGAGTAGGTGTTAGGACCACTCACGGAGTCACCTAGTGCAG”, the binding signal is reported as 20400 fluorescence intensity (a.u.). In the case of “AGGGAATGATACTACCTTTTCAGCCACTCACCATGACGTTCGGAGTCACCTAGTGCAG”, the binding signal is reported as 3190 fluorescence intensity (a.u.). For “TTGCTGGAAGCAGATGCAGACTCAGCATTCCAGCCGGACACGGAGTCACCTAGTGCAG”, the binding signal was 3480 fluorescence intensity (a.u.). With “CTGCACGTTACTCACGTGGCATCTCCAACTCTACCGCCAACGGAGTCACCTAGTGCAG” the binding signal was 7570 fluorescence intensity (a.u.). In the case of “AAGGTGAGGTTGGTCAACATTTGTCATCAAATTTTGATCACGGAGTCACCTAGTGCAG”, the binding signal is reported as 3400 fluorescence intensity (a.u.). In the case of “ATGTCGTTGCATTAAGCACTGACGCTCTTGTCCCGGTTATCGGAGTCACCTAGTGCAG”, the binding signal is reported as 4650 fluorescence intensity (a.u.). In the case of “GGCAGACGACACTGCATTCACTCCGCTGACACGGCGATTACGGAGTCACCTAGTGCAG”, the binding signal is reported as 6660 fluorescence intensity (a.u.). For “GTCGTGGCGGGAGATGACGTTGATCCTCACGGTGTTGTTGCGGAGTCACCTAGTGCAG”, the binding signal was 7420 fluorescence intensity (a.u.). In the case of “AGTTACACCTCATTTACACCCCACTTACATATGTAATTAGCGGAGTCACCTAGTGCAG”, the binding signal is reported as 5050 fluorescence intensity (a.u.). For “TTCTTGGAACAGCCTAAAGTAGCTGATGACTTTGATGTGCCGGAGTCACCTAGTGCAG”, the binding signal was 3330 fluorescence intensity (a.u.). In the case of “CGTTGCGCACGTACAGCTCACGCTCAAGTCGTACACATTACGGAGTCACCTAGTGCAG”, the binding signal is reported as 3840 fluorescence intensity (a.u.). With “CGCCCGCGCAGTCCACGCACGCAGCGCTGTCGTTCGTTGCCGGAGTCACCTAGTGCAG” the binding signal was 35700 fluorescence intensity (a.u.). For “TTAAATTACTCATCCGATTTACAATCCGATTACACCGTTGCGGAGTCACCTAGTGCAG”, the binding signal was 3640 fluorescence intensity (a.u.). For “GGCGCCGGCGCTAGCGCCCACGTCGGGGTTGGGGTTGGGGCGGAGTCACCTAGTGCAG”, the binding signal was 6010 fluorescence intensity (a.u.). For “TACAAATACCCGCCTCGCTTCGGACAAACACCTCACTCACCGGAGTCACCTAGTGCAG”, the binding signal was 3430 fluorescence intensity (a.u.). “AGGGAGATCGATCCGCCTCCGCCTCCGCCTCCGCCATGCTCGGAGTCACCTAGTGCAG” was tested, and the binding signal was 3360 fluorescence intensity (a.u.). “GGTTGACCTCGCGCGTGCGGCGTGTCGTGTCGTGTGTGTGCGGAGTCACCTAGTGCAG” was tested, and the binding signal was 6100 fluorescence intensity (a.u.). In the case of “CTTGAACAAAAGAAACAAAGTAGCAAACAGTACACTCGTACGGAGTCACCTAGTGCAG”, the binding signal is reported as 33800 fluorescence intensity (a.u.). In the case of “CGCTGGCGGTGGTCATCACCTGGAGGACCACCGGGCCCATCGGAGTCACCTAGTGCAG”, the binding signal is reported as 3340 fluorescence intensity (a.u.). With “CCACTCTATGTGTACGTGTCATCGTGTCTATGGATGCAATCGGAGTCACCTAGTGCAG” the binding signal was 13100 fluorescence intensity (a.u.). In the case of “TCATAGGGTAGCTCCTATATATTTCAGCTCTTTGGTCCTTCGGAGTCACCTAGTGCAG”, the binding signal is reported as 3780 fluorescence intensity (a.u.). For “ACGACTCCCTCCCACTCTACCCTCGTCTCGTGCGCGTGGACGGAGTCACCTAGTGCAG”, the binding signal was 3370 fluorescence intensity (a.u.). With “TGGCGTGCGTGCGTCACGTCACGTCGCTATTCTTTTGCAACGGAGTCACCTAGTGCAG” the binding signal was 9290 fluorescence intensity (a.u.). For “GAGGGCGGTTTTGCTGATGTGGCGTTGACGTGGCGATGTTCGGAGTCACCTAGTGCAG”, the binding signal was 27700 fluorescence intensity (a.u.). For “CCGTGATTAGTTCGGTGCGTGTAAAGGTAGTCTGCAACATCGGAGTCACCTAGTGCAG”, the binding signal was 3520 fluorescence intensity (a.u.). With “ATATTCTCTATAGGTGCTGGTTCTAAAACCGGCACCTATACGGAGTCACCTAGTGCAG” the binding signal was 3480 fluorescence intensity (a.u.). For “TGGAAACCTAGTAATATTGTCACTAGCATGACATCATTTACGGAGTCACCTAGTGCAG”, the binding signal was 3950 fluorescence intensity (a.u.). With “AATAACAAGAATTGTGTATAGGTGGCGCGTCCCAGTATCTCGGAGTCACCTAGTGCAG” the binding signal was 3750 fluorescence intensity (a.u.). With “GATATGTCATCGGTATCTCAATGACATGTAGGACCCACATCGGAGTCACCTAGTGCAG” the binding signal was 4800 fluorescence intensity (a.u.). With “TTCGGGATTGAAGTTCCATCTACATGAAAGATGAGTTGCACGGAGTCACCTAGTGCAG” the binding signal was 3670 fluorescence intensity (a.u.). “CTGCCTCGATCGATCGATCTCATCTCATCTGCGCTGTTCTCGGAGTCACCTAGTGCAG” was tested, and the binding signal was 19100 fluorescence intensity (a.u.). In the case of “GTTTCAACGCTAATGACATGGGCAGGCAATGCGAGGTGTGCGGAGTCACCTAGTGCAG”, the binding signal is reported as 4170 fluorescence intensity (a.u.). For “TTGGGAATCCTGTAGAACGACAGATTTTGATCAGTGAAATCGGAGTCACCTAGTGCAG”, the binding signal was 3230 fluorescence intensity (a.u.). “GCCATGCATCCATACACGTCTACACTCTACACCCATTAACCGGAGTCACCTAGTGCAG” was tested, and the binding signal was 4850 fluorescence intensity (a.u.).

Source: PMC7819943, “Rice protein-binding microarrays: a tool to detect cis-acting elements near promoter regions in rice”
